# Reference: paper PMC9908027
# The chains behind the UniProt entries cited, without tags or fusion partners. Where a name states a change or a piece, a line headed by the entry shows the natural chain unless it says otherwise.
# UniProt Q93229: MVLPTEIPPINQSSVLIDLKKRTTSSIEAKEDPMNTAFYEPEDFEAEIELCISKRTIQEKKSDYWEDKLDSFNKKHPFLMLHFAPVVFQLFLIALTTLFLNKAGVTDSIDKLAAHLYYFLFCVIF
# No constants are given. Whether binding was seen depends on the method and setting. Binding seen in cells or lysates may run through a third protein. A result given as binding can be weak or reduced; the word gives no strength. Where a sequence is shown, tags or fusion partners need not be part of it.
# B1: V5::SUN-1 (protein, UniProt Q20924 1-473)
# chain: MALRHTISPQFSNRHSPPVTRSVSRTGVHQPLDTSTPVTRRDSQPGTITGTIQRFHESADDSEIDLNSSKFIYKEHFSYKEITSMKKEMWYDWLEYRIRMVRRRFVPTWAQFKRTLMAVVLFAMLYKYARDCLFDGTHHNSEGSYADKDANWASEKQKFHQTISNLRAEFSAHDKQLDFKTDHLEKLLENVLEHSKGWKESAIEELKQIKLWQAEISDALQQMKKEIDDAKSTKIIHSTPEKAPETAPTASLPPSSQLQPMHITRRALLGVNVANSLIGASIDHSCSSRPVSAKDGFFYDFMSYFGTFQEGYALLDRDVLSPGEAWCTYDKRATLTVKLARFVIPKSVSYQHVRWSGIVPNHAPKLYDVVACTDSCCTKWQPLVANCEYKERDGSYDEQEQFCSVPTIQNHSPINHVQFRFRENHGDMPKTCAYLIRVYGEPVDPPKETQPMTDNGTESKLESAIVNSVSETA
# Target: HA::MJL-1 (MAJIN-Like-1) (C. elegans) (UniProt Q93229)
# Experiment: co-IP; HA::MJL-1 immunoprecipitated with anti-HA antibody on Dynabeads Protein A from sonicated lysate of nuclei of ha::mjl-1; v5::sun-1 hermaphrodites; 130 mM NaCl, 2.5 mM MgCl2, 25 mM Hepes pH 7.4, 2 mM EGTA, 1% Triton X-100; 4°C, 2 hours; blots with anti-HA and anti-V5
binder,measurement,value
B1,binding,binds
